Source: PubChem BioAssay AID1508597 (Cure First, 2020)
Assay: 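Survival screen with siRNA in ovarian cancer cells derived from patients, with or without rucaparib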 (primary screen). System: human ovarian carcinoma lines grown from tumours: OCI-P5x (papillary serous) and OCI-C5x (clear cell). Knock-down reagent: siRNA pool against human genes, 1.25 pmol siRNA per well. Timing: 72 h or 96 h, depending on the cell culture. Conditions: rucaparib 20 µM (about IC30) or vehicle, present until read-out. Measurement: 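Luminescent ATP-based viability assay read 72 or 96 h after transfection, depending on culture, given as normalised percent viability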. Direction: viability, normalised: higher = more viable cells remaining. Hit rule: 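Active when normalised viability falls below 80 percent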. Calls: active = viability under 80%; inactive = viability 80% or more.
The whole screen tested about 2,100 reagents; this is a part drawn at random. 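Calls flag viability under 80% in either arm, not effects specific to rucaparib; the reference for percent is not stated.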 Not stated in the record: the 100% reference.

MVK, rucaparib or vehicle Rucaparib, cell line OCI-C5x (clear cell), technical replicate 1 | viability, normalised (%) = 41.3; outcome = active
MVK, rucaparib or vehicle Rucaparib, cell line OCI-C5x (clear cell), technical replicate 2 | viability, normalised (%) = 47; outcome = active
MVK, rucaparib or vehicle Rucaparib, cell line OCI-C5x (clear cell), technical replicate 3 | viability, normalised (%) = 38; outcome = active
MVK, rucaparib or vehicle Rucaparib, cell line OCI-P5x (serous), technical replicate 1 | viability, normalised (%) = 98.7; outcome = inactive
MVK, rucaparib or vehicle Rucaparib, cell line OCI-P5x (serous), technical replicate 2 | viability, normalised (%) = 105; outcome = inactive
MVK, rucaparib or vehicle Rucaparib, cell line OCI-P5x (serous), technical replicate 3 | viability, normalised (%) = 84.4; outcome = inactive
MVK, rucaparib or vehicle Vehicle, cell line OCI-C5x (clear cell), technical replicate 1 | viability, normalised (%) = 67.7; outcome = active
MVK, rucaparib or vehicle Vehicle, cell line OCI-C5x (clear cell), technical replicate 2 | viability, normalised (%) = 61.9; outcome = active
MVK, rucaparib or vehicle Vehicle, cell line OCI-C5x (clear cell), technical replicate 3 | viability, normalised (%) = 62.4; outcome = active
MVK, rucaparib or vehicle Vehicle, cell line OCI-P5x (serous), technical replicate 1 | viability, normalised (%) = 103; outcome = inactive
MVK, rucaparib or vehicle Vehicle, cell line OCI-P5x (serous), technical replicate 2 | viability, normalised (%) = 90.5; outcome = inactive
MVK, rucaparib or vehicle Vehicle, cell line OCI-P5x (serous), technical replicate 3 | viability, normalised (%) = 97.2; outcome = inactive
